Measurements reported in PubChem BioAssay AID1259308 (NCATS, 2017)
Here is a random part of about 59,000 reagents. About 1,510 of them (2.6%) were called active. 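Calls use total luciferase alone and ignore viability, so some active siRNAs may act by altering cell number.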 Unmarked entries are inactive. Not all columns of the deposit are shown.

Assay: 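Candidate targets for better recombinant protein yield in mammalian cells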 (primary screen)
Cells: human HEK293 embryonic kidney cells stably expressing firefly luciferase (HEK-CMV-Luc2-Hygro)
Reagent: single siRNA against human genes, 0.8 pmol siRNA per well
Duration: 72 h
Measured: 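Reporter luminescence and viable-cell signal on separate replicate plates, given as percent of non-targeting control and median/MAD z-scores, plus per-cell luciferase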
Direction: total luciferase, z-score and total luciferase, % of control: higher = more reporter protein produced; luciferase per cell, z-score: higher = more reporter output per viable cell
Active means: 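Active when the median/MAD z-score for overall luciferase is greater than 3; a gene was taken forward for validation with new siRNAs if at least two of its three siRNAs passed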
Calls: active = raised luciferase; inactive = no rise

| gene | PubChem SID | total luciferase, z-score | total luciferase, % of control | luciferase per cell, z-score |
| --- | --- | --- | --- | --- |
| PER2 | SID160721004 | 0.0434 | 82.8 | -0.36 |
| PER2 | SID160721005 | -0.0355 | 81.2 | 0.346 |
| PER2 | SID160721006 | 3.29 (active) | 147 | 2.05 |
| LINC00951 | SID160767222 | 0.797 | 97.7 | 0.625 |
| LINC00951 | SID160767224 | 2.22 | 126 | 2.06 |
| LINC00951 | SID160767225 | 2.84 | 138 | 1.95 |
| OR4E2 | SID160732879 | -1.02 | 61.5 | -0.821 |
| OR4E2 | SID160738141 | -0.161 | 78.7 | -0.0553 |
| OR4E2 | SID160738142 | 0.423 | 90.3 | -0.142 |
| ZNF736 | SID160772269 | 0.561 | 93 | 1.25 |
| ZNF736 | SID160772270 | 1.36 | 109 | 1.69 |
| ZNF736 | SID160772271 | 1.19 | 106 | 1.58 |
| BTD | SID160729120 | 1.26 | 107 | 0.548 |
| BTD | SID160729126 | -0.367 | 74.6 | 0.553 |
| BTD | SID160729135 | 0.546 | 92.7 | 1.61 |
| AARSD1 | SID160731952 | 1.05 | 103 | 1.07 |
| AARSD1 | SID160750523 | -1.07 | 60.5 | -1.83 |
| AARSD1 | SID160750524 | 0.0777 | 83.4 | -0.43 |
| TUT7 | SID160749149 | 1.33 | 108 | 1.17 |
| TUT7 | SID160749150 | 1.94 | 120 | 1.64 |
| TUT7 | SID160749152 | 1.02 | 102 | 0.458 |
| HACL1 | SID160737568 | 1.05 | 103 | 1.2 |
| HACL1 | SID160737569 | -0.569 | 70.6 | -0.732 |
| HACL1 | SID160737570 | 1.37 | 109 | 1.08 |
| LINC01168 | SID160725327 | 1.35 | 109 | 0.461 |
| LINC01168 | SID160725328 | 4.59 (active) | 173 | 2.04 |
| LINC01168 | SID160733299 | -2.36 | 35 | -2.04 |
| P2RX5 | SID160731318 | -0.299 | 75.9 | -1.23 |
| P2RX5 | SID160731319 | -0.478 | 72.4 | -1.4 |
| P2RX5 | SID160778493 | -0.943 | 63.1 | -0.321 |
| HRH4 | SID160746994 | 1.03 | 102 | 0.98 |
| HRH4 | SID160746995 | 2.5 | 132 | 1.44 |
| HRH4 | SID160746999 | -0.604 | 69.9 | -1.45 |
| CPEB4 | SID160750368 | 1.49 | 112 | 0.854 |
| CPEB4 | SID160750369 | 0.188 | 85.6 | 0.948 |
| CPEB4 | SID160750370 | 0.147 | 84.8 | 0.312 |
| KIF25 | SID160776335 | -1.51 | 51.9 | -1.95 |
| KIF25 | SID160776336 | -1.54 | 51.3 | -1.64 |
| KIF25 | SID160776338 | 1.62 | 114 | 1.87 |

Entries listed above with an active call (2):
| gene | PubChem SID | total luciferase, z-score | total luciferase, % of control | luciferase per cell, z-score |
| --- | --- | --- | --- | --- |
| PER2 | SID160721006 | 3.29 (active) | 147 | 2.05 |
| LINC01168 | SID160725328 | 4.59 (active) | 173 | 2.04 |
